What follows are compounds tested on monkey kidney cells (Vero) (assay: In vitro toxicity, Vero cells). Details: ratio of IC50:MIC.
Format: cell-based
Description: Twenty six compounds (including 37, 59 and 109) were tested in an in vitro model of toxicity using monkey kidney cells (Vero) and human cervical cancer cells (HeLa) using methods well known to those skilled in the art. The data from this toxicity testing and the MIC data were used to calculate a selectivity index (SI), the ratio of IC50:MIC (Table 15). Selectivity Indexes were ranging from 1.76 to 16.67.

Going from `CC1(C)C2CCC(CNCCNCC(c3ccccc3)c3ccccc3)[C@@H]1C2` (stereo partly drawn) [Compound 37, N-(2,2-Diphenylethyl)-N′-(−)-cis-(myrtanyl)ethane-1,2-diamine] to `CC(CNCC(c1ccccc1)c1ccccc1)NCC1CCC2C[C@@H]1C2(C)C` (stereo partly drawn) [Compound 38, N-(−)-cis-(Myrtanyl)-N′-(2,2-diphenylethyl)propyl-1,2-diamine], the “SI (IC50:MIC)” value rises from 4.10 to 5.28.

Going from `C[C@@H]1C2C[C@@H](C[C@H]1NCCNCC(c1ccccc1)c1ccccc1)C2(C)C` [Compound 40, N-(2,2-Diphenylethyl)-N′-(1R,2R,3R,5S)-(−)-isopinocampheylethane-1,2-diamine] to `C[C@@H]1C2C[C@@H](C[C@H]1NCCNCCC(c1ccccc1)c1ccccc1)C2(C)C` [Compound 66, N-(3,3-Diphenylpropyl)-N′-(1R, 2R, 3R, 5S)-(−)-isopinocampheylethane-1,2-diamine], the “SI (IC50:MIC)” value falls from 1.88 to 1.76.

First: CC1CCCC(NCCNC[C@@H]2CCC3C[C@@H]2C3(C)C)C1C (stereo partly drawn) [Compound 41, N-(−)-cis-(Myrtanyl)-N′-(2,3-dimethylcyclohexyl)ethane-1,2-diamine]
Second: CC1(C)C2CCC(CNCCNC3CCCCCCC3)[C@@H]1C2 (stereo partly drawn) [Compound 57, N-(−)-cis-Myrtanyl-N′-(cyclooctyl)ethane-1,2-diamine]
The “SI (IC50:MIC)” value of the first is lower: 2.05 for the first, 2.40 for the second.

Going from `C1CCCC(NCCNC2C3CC4CC(C3)CC2C4)CCC1` (stereo not shown) [Compound 58, N-(Cyclooctyl)-N′-(2-adamantyl)ethane-1,2-diamine] to `C[C@@H]1[C@H]2C[C@@H](C[C@H]1NCCNC1CCCCCCC1)C2(C)C` [Compound 59, N-(Cyclooctyl)-N′-(1R, 2R, 3R, 5S)-(−)-isopinocampheylethane-1,2-diamine], the “SI (IC50:MIC)” value falls from 6.56 to 2.30.

Going from `COc1ccccc1CCNCCNC1C2CC3CC(C2)CC1C3` (stereo not shown) [Compound 73, N-(2-Adamantyl)-N′-[2-(2-methoxyphenyl)ethyl]ethane-1,2-diamine] to `CCC1CCCCN1CCNC/C=C(\C)CCC=C(C)C` (stereo not shown) [Compound 111, N-[2-(N′-Geranyl)aminoethyl]-2-ethylpiperidine], the “SI (IC50:MIC)” value falls from 6.48 to 5.76.
